Targets include G3BP1-EGFP (human) (UniProt Q13283); G3BP1-F112A-EGFP (human) (UniProt Q13283); G3BP1-F124W-EGFP (human) (UniProt Q13283); G3BP1-V11A-EGFP (human) (UniProt Q13283).
What all share (test): affinity purification with mass spectrometry

Amino acid sequences for entries named in this document (tags omitted). A change or cut given only in a name is not applied to a line headed by its entry.
UniProt Q13283: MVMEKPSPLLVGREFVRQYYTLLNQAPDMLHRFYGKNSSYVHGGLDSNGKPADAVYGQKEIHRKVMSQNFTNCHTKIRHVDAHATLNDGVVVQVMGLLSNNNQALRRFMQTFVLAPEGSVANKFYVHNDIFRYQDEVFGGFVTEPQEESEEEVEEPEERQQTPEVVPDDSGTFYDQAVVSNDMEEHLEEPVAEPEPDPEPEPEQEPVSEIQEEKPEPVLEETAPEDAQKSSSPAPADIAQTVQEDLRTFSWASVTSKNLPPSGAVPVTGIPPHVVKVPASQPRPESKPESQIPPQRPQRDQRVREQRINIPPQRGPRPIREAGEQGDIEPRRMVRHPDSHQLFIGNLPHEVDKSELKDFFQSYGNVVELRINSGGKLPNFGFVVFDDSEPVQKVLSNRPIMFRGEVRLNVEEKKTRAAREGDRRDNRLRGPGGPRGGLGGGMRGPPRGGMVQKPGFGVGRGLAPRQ
UniProt P49790: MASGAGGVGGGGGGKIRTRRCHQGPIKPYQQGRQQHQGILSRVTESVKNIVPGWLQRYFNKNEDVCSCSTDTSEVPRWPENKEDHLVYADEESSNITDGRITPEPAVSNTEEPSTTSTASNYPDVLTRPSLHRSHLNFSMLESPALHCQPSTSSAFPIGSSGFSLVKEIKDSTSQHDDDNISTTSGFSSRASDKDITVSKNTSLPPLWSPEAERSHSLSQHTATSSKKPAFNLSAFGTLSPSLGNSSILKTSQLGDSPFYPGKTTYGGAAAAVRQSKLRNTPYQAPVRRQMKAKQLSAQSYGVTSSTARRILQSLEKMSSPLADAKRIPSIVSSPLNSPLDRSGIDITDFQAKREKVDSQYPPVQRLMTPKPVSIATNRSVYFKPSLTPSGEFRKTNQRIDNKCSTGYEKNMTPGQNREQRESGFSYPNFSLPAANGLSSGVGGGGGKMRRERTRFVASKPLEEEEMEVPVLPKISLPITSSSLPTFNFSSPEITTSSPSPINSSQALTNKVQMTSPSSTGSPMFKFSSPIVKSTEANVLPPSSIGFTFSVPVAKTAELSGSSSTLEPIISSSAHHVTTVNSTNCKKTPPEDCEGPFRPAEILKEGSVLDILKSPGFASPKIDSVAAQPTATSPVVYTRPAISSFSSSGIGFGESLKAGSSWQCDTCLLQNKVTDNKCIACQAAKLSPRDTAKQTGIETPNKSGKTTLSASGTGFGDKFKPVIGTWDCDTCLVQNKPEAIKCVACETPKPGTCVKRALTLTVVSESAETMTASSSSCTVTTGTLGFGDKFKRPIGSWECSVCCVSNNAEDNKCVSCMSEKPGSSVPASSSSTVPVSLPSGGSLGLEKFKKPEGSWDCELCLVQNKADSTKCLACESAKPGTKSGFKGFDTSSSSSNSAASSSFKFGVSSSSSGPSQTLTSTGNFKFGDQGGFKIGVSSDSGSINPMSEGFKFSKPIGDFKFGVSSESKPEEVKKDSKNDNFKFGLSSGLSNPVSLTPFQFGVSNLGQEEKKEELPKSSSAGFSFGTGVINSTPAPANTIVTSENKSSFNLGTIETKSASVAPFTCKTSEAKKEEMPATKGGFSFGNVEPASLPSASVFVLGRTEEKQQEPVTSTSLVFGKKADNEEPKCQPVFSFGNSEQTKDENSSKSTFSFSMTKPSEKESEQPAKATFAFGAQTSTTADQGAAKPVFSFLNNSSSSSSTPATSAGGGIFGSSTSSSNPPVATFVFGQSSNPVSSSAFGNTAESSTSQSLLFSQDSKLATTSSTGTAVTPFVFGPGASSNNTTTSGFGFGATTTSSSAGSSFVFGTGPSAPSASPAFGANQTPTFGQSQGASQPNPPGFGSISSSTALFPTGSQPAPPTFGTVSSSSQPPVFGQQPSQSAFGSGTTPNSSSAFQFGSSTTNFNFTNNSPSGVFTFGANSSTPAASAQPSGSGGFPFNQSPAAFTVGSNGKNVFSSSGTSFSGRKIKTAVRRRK
UniProt Q14157: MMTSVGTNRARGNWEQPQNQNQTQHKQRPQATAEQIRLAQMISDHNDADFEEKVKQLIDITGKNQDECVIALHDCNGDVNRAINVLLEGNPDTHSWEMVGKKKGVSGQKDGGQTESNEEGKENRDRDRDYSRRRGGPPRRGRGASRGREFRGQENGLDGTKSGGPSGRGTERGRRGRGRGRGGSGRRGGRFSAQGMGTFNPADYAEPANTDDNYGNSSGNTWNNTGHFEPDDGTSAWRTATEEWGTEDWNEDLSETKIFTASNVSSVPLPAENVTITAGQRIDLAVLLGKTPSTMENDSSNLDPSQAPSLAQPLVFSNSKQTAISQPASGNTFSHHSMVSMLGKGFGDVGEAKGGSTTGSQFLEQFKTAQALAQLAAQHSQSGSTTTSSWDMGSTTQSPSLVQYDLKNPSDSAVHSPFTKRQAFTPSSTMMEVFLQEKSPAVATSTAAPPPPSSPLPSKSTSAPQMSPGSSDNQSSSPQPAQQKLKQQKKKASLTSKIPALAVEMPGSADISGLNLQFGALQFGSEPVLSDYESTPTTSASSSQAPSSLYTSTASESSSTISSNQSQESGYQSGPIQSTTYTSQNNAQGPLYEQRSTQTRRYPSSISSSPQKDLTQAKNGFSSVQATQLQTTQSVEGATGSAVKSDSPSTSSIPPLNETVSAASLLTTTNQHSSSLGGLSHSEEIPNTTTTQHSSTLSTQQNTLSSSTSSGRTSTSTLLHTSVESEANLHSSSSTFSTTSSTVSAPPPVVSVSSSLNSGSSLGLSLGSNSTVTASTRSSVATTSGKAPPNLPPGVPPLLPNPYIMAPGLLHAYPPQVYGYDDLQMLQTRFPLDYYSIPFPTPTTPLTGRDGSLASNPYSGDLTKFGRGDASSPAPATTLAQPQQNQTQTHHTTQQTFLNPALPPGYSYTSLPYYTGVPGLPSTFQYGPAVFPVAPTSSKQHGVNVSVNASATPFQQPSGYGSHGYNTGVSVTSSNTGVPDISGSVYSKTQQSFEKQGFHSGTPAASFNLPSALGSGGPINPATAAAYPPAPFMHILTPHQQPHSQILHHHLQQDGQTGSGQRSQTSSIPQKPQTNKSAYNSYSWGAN
UniProt P51114: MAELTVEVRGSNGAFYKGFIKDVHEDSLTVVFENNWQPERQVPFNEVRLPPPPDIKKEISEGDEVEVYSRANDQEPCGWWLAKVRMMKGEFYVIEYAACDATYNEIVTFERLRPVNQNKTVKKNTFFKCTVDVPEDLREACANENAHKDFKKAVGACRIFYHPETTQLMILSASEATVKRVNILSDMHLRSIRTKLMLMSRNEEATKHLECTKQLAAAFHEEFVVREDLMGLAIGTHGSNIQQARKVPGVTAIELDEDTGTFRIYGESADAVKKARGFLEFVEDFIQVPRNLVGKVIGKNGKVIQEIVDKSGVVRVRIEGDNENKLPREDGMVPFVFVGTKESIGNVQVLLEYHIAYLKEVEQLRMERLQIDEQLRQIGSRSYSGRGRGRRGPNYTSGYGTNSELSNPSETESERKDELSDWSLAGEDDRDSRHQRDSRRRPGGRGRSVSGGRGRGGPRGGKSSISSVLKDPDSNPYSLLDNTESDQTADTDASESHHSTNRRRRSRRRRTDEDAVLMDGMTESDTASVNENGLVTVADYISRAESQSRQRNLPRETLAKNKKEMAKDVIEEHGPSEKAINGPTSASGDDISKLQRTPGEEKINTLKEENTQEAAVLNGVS

No constants are given. Whether binding was seen depends on the method and setting. In cells and extracts the contact can be indirect. A yes stands for co-enrichment or nearness to the bait. Other partners may have been found. For some of these results: A no says only that the protein was not detected with the bait.

As for Nup153 (from UniProt P49790 1-1475), the binding entry with G3BP1-EGFP (human) is recorded as “binds”; with G3BP1-F112A-EGFP (human) it was “no binding”; with G3BP1-F124W-EGFP (human) it was “binds”; with G3BP1-V11A-EGFP (human), “no binding”.
Turning to UBP2L (from UniProt Q14157 1-1087), the binding entry is “binds” with G3BP1-EGFP (human), “binds” in the assay with G3BP1-F112A-EGFP (human), “binds” with G3BP1-F124W-EGFP (human) and “no binding” with G3BP1-V11A-EGFP (human).
With FXR1 (from UniProt P51114 1-621), the binding result with G3BP1-F112A-EGFP (human) and with G3BP1-F124W-EGFP (human) was “binds” in each case.
